The record followed here is PMC7048933.

Protein sequences, listed by entry. Tags and fused reporters are not part of them.
UniProt Q9UNE7: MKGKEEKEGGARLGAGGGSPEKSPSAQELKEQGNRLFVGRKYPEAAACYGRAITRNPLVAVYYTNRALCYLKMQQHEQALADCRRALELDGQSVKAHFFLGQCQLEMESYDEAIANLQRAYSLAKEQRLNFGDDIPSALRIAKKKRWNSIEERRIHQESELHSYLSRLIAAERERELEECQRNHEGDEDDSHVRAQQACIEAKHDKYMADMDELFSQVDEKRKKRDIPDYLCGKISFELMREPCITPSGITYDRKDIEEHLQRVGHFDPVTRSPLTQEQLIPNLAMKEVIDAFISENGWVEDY

No constants are given. Whether binding was seen depends on the method and setting. In cells and extracts the contact can be indirect. Here binding means that the protein was enriched with, or labelled near, the bait; the list need not be complete. Sequences can lack the tags named with a protein.

In the experiment the target is T1, Flag-tagged CBX4 (chromobox homolog 4), wild type (human) (UniProt O00257).
T1 sequence: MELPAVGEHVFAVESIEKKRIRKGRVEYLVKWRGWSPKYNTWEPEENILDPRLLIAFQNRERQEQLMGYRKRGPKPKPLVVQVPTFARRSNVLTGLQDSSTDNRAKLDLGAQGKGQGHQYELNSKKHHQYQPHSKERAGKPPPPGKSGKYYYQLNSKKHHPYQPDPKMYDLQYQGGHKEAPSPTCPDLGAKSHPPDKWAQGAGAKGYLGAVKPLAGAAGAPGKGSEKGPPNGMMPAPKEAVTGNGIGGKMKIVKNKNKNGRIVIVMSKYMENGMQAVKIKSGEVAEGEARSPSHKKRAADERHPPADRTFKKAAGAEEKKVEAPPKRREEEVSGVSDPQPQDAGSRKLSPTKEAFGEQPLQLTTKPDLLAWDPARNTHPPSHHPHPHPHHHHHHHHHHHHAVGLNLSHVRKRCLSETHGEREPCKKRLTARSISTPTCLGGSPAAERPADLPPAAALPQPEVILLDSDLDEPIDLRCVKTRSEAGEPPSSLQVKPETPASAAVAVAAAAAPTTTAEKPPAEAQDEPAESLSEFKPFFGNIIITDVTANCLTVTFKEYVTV
The experiment in a line: affinity purification with mass spectrometry; HEK293T cells transiently expressing Flag-tagged CBX4; lysed in NETN buffer; Flag-conjugated beads 4 h at 4 °C; five washes; SDS-PAGE, Coomassie staining, indicated bands sequenced by MS.

Turning to “endogenous CHIP of HEK293T cells (from UniProt Q9UNE7 1-303) (enzyme)”, the binding entry is “binds”.

B1: endogenous MKRN2 of HEK293T cells (enzyme, UniProt Q9H000 1-416)
chain: MSTKQITCRYFMHGVCREGSQCLFSHDLANSKPSTICKYYQKGYCAYGTRCRYDHTRPSAAAGGAVGTMAHSVPSPAFHSPHPPSEVTASIVKTNSHEPGKREKRTLVLRDRNLSGMAERKTQPSMVSNPGSCSDPQPSPEMKPHSYLDAIRSGLDDVEASSSYSNEQQLCPYAAAGECRFGDACVYLHGEVCEICRLQVLHPFDPEQRKAHEKICMLTFEHEMEKAFAFQASQDKVCSICMEVILEKASASERRFGILSNCNHTYCLSCIRQWRCAKQFENPIIKSCPECRVISEFVIPSVYWVEDQNKKNELIEAFKQGMGKKACKYFEQGKGTCPFGSKCLYRHAYPDGRLAEPEKPRKQLSSQGTVRFFNSVRLWDFIENRESRHVPNNEDVDMTELGDLFMHLSGVESSEP
On to B1, for which the binding entry is given as “binds”.
